Laboratory results reported in publication PMC12681703.
These are yes or no findings as the source states them, for the method shown. Binding seen in cells or lysates may run through a third protein. Here binding means that the protein was enriched with, or labelled near, the bait; the list need not be complete.

Target: LAPTM4B-24-3xFlag (Flag-tagged LAPTM4B)
Assay: affinity purification with mass spectrometry; immunoprecipitation of Flag-tagged LAPTM4B from LAPTM4B-expressing cells against control cells, then mass spectrometry; hit if the peptide count is at least 1.5-fold that of the control and at least two peptides more

B1: TRIM8 (endogenous) (enzyme, UniProt Q9BZR9 1-551)
chain: MAENWKNCFEEELICPICLHVFVEPVQLPCKHNFCRGCIGEAWAKDSGLVRCPECNQAYNQKPGLEKNLKLTNIVEKFNALHVEKPPAALHCVFCRRGPPLPAQKVCLRCEAPCCQSHVQTHLQQPSTARGHLLVEADDVRAWSCPQHNAYRLYHCEAEQVAVCQYCCYYSGAHQGHSVCDVEIRRNEIRKMLMKQQDRLEEREQDIEDQLYKLESDKRLVEEKVNQLKEEVRLQYEKLHQLLDEDLRQTVEVLDKAQAKFCSENAAQALHLGERMQEAKKLLGSLQLLFDKTEDVSFMKNTKSVKILMDRTQTCTSSSLSPTKIGHLNSKLFLNEVAKKEKQLRKMLEGPFSTPVPFLQSVPLYPCGVSSSGAEKRKHSTAFPEASFLETSSGPVGGQYGAAGTASGEGQSGQPLGPCSSTQHLVALPGGAQPVHSSPVFPPSQYPNGSAAQQPMLPQYGGRKILVCSVDNCYCSSVANHGGHQPYPRSGHFPWTVPSQEYSHPLPPTPSVPQSLPSLAVRDWLDASQQPGHQDFYRVYGQPSTKHYVTS
For B1, the binding was “binds”.
